Assay results published in article PMC4294353.
No constants are given. Whether binding was seen depends on the method and setting. Binding seen in cells or lysates may run through a third protein. Some entries that bind do so weakly or less than the wild type. For some assays here: Sequences can lack the tags named with a protein.

By UniProt entry, the sequences of proteins in these tests, tags left out.
UniProt P08151: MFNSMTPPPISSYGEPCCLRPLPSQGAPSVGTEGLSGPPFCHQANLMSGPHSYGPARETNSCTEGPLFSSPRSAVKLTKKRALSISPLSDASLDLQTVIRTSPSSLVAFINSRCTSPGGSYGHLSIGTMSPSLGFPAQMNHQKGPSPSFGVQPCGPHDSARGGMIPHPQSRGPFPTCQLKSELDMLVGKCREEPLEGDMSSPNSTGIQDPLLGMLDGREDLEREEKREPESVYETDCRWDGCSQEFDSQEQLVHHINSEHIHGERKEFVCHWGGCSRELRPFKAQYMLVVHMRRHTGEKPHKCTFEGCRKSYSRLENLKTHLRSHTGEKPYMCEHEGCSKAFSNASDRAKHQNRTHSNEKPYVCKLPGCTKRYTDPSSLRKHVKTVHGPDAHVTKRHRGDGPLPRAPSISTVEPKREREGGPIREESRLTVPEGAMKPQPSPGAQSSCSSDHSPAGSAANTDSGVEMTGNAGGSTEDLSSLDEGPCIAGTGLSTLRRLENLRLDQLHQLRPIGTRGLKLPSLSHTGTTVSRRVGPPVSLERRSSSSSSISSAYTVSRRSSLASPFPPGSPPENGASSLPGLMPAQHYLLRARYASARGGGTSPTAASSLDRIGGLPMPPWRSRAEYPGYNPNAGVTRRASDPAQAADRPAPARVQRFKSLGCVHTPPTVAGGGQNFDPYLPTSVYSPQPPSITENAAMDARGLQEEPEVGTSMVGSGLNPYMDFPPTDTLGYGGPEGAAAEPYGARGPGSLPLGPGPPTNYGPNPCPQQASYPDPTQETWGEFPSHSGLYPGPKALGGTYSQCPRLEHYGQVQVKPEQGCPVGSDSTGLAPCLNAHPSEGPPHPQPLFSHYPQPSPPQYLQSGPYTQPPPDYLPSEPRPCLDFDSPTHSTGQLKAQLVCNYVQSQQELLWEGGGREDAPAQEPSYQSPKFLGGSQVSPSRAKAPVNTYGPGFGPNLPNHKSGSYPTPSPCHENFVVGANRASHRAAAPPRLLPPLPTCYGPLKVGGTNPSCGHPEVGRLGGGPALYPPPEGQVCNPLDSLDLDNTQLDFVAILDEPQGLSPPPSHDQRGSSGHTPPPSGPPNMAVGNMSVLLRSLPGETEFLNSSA

Experiments:
[1] = biological target: T1, Sufu expressed from the Sufu (NM_016169) plasmid (human) (UniProt Q9UMX1); experiment: co-IP; U87 cells lysed in RIPA buffer; 1 ug anti-Sufu (or anti-Gli1) antibody or control rabbit IgG with protein-A/G PLUS-Agarose beads at 4°C overnight, washed 3 times with RIPA, immunoblot for Gli1 (or Sufu); cells also transfected with Sufu plasmid or Sufu siRNA
T1 sequence: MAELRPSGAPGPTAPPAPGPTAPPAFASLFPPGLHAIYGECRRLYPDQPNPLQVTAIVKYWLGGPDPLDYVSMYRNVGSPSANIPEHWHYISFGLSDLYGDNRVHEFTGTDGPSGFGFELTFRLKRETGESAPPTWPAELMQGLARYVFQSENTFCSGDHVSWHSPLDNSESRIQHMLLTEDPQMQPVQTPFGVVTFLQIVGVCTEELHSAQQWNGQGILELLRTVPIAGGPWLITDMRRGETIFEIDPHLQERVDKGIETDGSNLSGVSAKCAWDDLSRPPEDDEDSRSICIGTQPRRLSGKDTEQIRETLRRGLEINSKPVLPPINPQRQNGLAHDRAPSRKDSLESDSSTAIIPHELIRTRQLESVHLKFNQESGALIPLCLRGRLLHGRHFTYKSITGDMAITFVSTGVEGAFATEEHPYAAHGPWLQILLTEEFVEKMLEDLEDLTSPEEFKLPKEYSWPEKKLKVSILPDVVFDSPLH

[2] = biological target: T2, Suppressor of fused (Sufu) (human (endogenous in U87)) (UniProt Q9UMX1); experiment: as above
T2 sequence: T1 sequence

- binding [1]: binds
- binding [2]: binds
Substance: glioma-associated oncogene homolog 1 (Gli1) (from UniProt P08151 1-1106)
